Assay results from US20110066230A1, “Fluorinated GHRH Antagonists” (priority 2009, published 2011).
At least one peptide structure holds a part that was inferred or is arguable (an end, a ring closure or a residue). Square brackets hold non-standard residues; d marks the D form. Peptide text beside a SMILES is read from it. * marks the point of attachment. Phe(F5) = N[C@@H](Cc1c(F)c(F)c(F)c(F)c1F)C(=O)O; Phe(4-Cl) = N[C@@H](Cc1ccc(Cl)cc1)C(=O)O; hArg = N=C(N)NCCCC[C@H](N)C(=O)O; 12Ado = NCCCCCCCCCCCC(=O)O; Nle = CCCC[C@H](N)C(=O)O; Orn = NCCC[C@H](N)C(=O)O; Abu = CC[C@H](N)C(=O)O; PhAc = O=C(Cc1ccccc1)*

Tested on: PC-3 human hormone-independent prostate cancer
Assay: Effect of treatment with GH-RH antagonists on PC-3 human prostate cancer xenografts in nude mice
Assay type: in vivo
Details: 2 μg/day s.c., single daily injections, s.c. PC-3 xenografts in male nude mice

## CCCC[C@H](NC(=O)[C@@H](NC(=O)[C@H](CC(=O)O)NC(=O)[C@H](CCC(N)=O)NC(=O)[C@H](CC(C)C)NC(=O)[C@H](CC(C)C)NC(=O)[C@H](CCCN)NC(=O)[C@H](Cc1c[nH]cn1)NC(=O)[C@H](C)NC(=O)[C@H](CO)NC(=O)[C@H](CC(C)C)NC(=O)[C@H](CCC(N)=O)NC(=O)[C@H](CC)NC(=O)[C@H](CC(C)C)NC(=O)[C@@H](NC(=O)[C@H](CCCN)NC(=O)[C@H](Cc1c[nH]cn1)NC(=O)[C@H](Cc1c(F)c(F)c(F)c(F)c1F)NC(=O)[C@H](CCCCNC(=N)N)NC(=O)[C@H](C)NC(=O)[C@@H](NC(=O)[C@H](Cc1ccc(Cl)cc1)NC(=O)[C@@H](NC(=O)[C@H](C)NC(=O)[C@H](CC(=O)O)NC(=O)[C@@H](CCCNC(=N)N)NC(=O)[C@H](Cc1ccc(O)cc1)NC(=O)Cc1ccccc1)[C@@H](C)CC)[C@@H](C)O)C(C)C)[C@@H](C)CC)C(=O)N[C@H](CCCNC(=N)N)C(=O)N[C@@H](CCCCNC(=N)N)C(=O)NCCCCCCCCCCCC(N)=O [Peptide P-12610, [PhAc^0-Tyr^1, D-Arg^2, Cpa^6, Ala^8, Har^9, Fpa5^10, His^11, Orn^12, Abu^15, His^20, Orn^21, Nle^27, D-Arg^28, Har^29, Ada^30]hGH-RH(1-30)NH2] (PhAc-Y[dR]DAI[Phe(4-Cl)]TA[hArg][Phe(F5)]H[Orn]VL[Abu]QLSAH[Orn]LLQDI[Nle][dR][hArg][12Ado]-NH2)
  Tumor Growth after 4 weeks (%): 474.98%
